Experimental data taken from patent US20170304388A1, “NEW INDICATION OF CARDIOVASCULAR DRUGS FOR PREPARATION OF CANCER INHIBITION PHARMACEUTICAL COMPOSITION” (LAUNX BIOMEDICAL CO., LTD., priority 2014, published 2017).

Test system: cancer cell lines
Assay: Growth inhibitory effects on the panel of cancer cell lines
Format: cell-based
Conditions: count of cancer cell lines inhibited; drug 10 μM, 72 hours

Question: With CC(C)OC(=O)C(C)(C)Oc1ccc(C(=O)c2ccc(Cl)cc2)cc1 [Fenofibrate (Tricor, Trilipix), Fenofibrate] as the compound, how does the “Numbers of inhibitory effect on cancer cell line” value read?
Answer: 0
